From PubChem BioAssay AID493014 (National Center for Advancing Translational Sciences (NCATS), 2011)
This is one part of the list. Shown are side measurements of this screen, not its main read-out; they come without a call. The list favours compounds with an active or inconclusive main result. Potencies come from curve fits of mixed quality, noted in brackets.

Assay: qHTS Assay to Find Inhibitors of Chronic Active B-Cell Receptor Signaling
Settings: ABC-DLBCL IkBa-CBG/CBR reporter, luminescence ratio (green luciferase fused to IkBa over red control in TMD8 lymphoma cells), 4 h
Method in brief: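 TMD8 human ABC-DLBCL cells with doxycycline-inducible IκBα–green luciferase fusion and unfused red luciferase, in 0.5% FBS medium; compounds up to 46 uM, 4 h at 37C. Green/red luminescence ratio, filter-overlap corrected, fitted to concentration-response curves.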

[1] = measured here: CBR red luminescence, cell number
[2] = measured here: IkBa-CBG green luminescence

N/C(=C\C(=O)c1cc(Cl)ccc1O)C(Cl)(Cl)Cl
AC50 [1]: 3.98 µM [rising, full curve, poor fit]
AC50 [2]: 7.94 µM [falling, partial curve]

COc1ccc(F)cc1CN1CCN(C(=O)CCC(=O)Nc2nnc(C3CCCCC3)s2)CC1
AC50 [1]: 1.41 µM [rising, partial curve, poor fit]

Clc1ccc2c(c1)CCc1cccnc1C2=C1CCNCC1
AC50 [1]: 12.6 µM [falling, partial curve, poor fit]

Nc1c(C(=O)NCc2ccco2)c2nc3ccccc3nc2n1CCc1ccccc1F
AC50 [1]: 20.6 µM [falling, single point]

COCC(=O)Nc1nc(-c2ccccc2)ns1
AC50 [1]: 8.2 µM [falling, partial curve]

COCCNC(=O)CCn1nc(-c2ccc(C)cc2)ccc1=O
AC50 [1]: 15.8 µM [falling, partial curve, poor fit]

Cc1ccc(C(=O)NC(=S)N(C)C2CCCCC2)cc1
AC50 [1]: 0.562 µM [rising, full curve, poor fit]

Cc1c(Cl)cccc1-n1c(SCC(=O)N(C)Cc2ccccc2)nnc1-c1ccncc1
AC50 [1]: 2.31 µM [falling, partial curve, poor fit]

CCOC(=O)c1c(NC(=O)C2CCCCC2C(=O)O)sc2c1CCCCC2 (stereo not drawn)
AC50 [1]: 22.4 µM [falling, single point]

CC1CCCCN1C(=O)c1ccc(C(=O)Nc2ccc(F)cc2)cc1 (stereo not drawn)
AC50 [1]: 14.6 µM [falling, single point]

COc1cc(C2C3=C(CC(C)(C)CC3=O)N(C)C3=C2C(=O)CC(C)(C)C3)cc(Br)c1O
AC50 [1]: 6.31 µM [rising, single point]

O=C(Nc1ccc(Cl)cc1)N1CCC(c2nc(-c3cccs3)no2)CC1
AC50 [1]: 0.206 µM [rising, full curve]

CCCCN1C(=O)C(O)(CC(=O)c2ccccn2)c2ccccc21 (stereo not drawn)
AC50 [1]: 20 µM [rising, single point]

CCOCCCNC(=O)C1CCN(C(=O)Nc2ccc(Cl)cc2)CC1
AC50 [1]: 18.4 µM [rising, partial curve, poor fit]

CC(Oc1ccccc1Cl)C(=O)Nc1ccccc1C(=O)N1CCOCC1 (stereo not drawn)
AC50 [1]: 0.631 µM [rising, partial curve, poor fit]

O=C(NC1CCCC1)c1ccccc1OCc1ccccc1
AC50 [1]: 5.62 µM [rising, single point]
AC50 [2]: 25.1 µM [rising, partial curve, poor fit]

COc1ccc(/C=C/C(=O)Nc2cccc(F)c2)cc1S(=O)(=O)N1CCOCC1
AC50 [1]: 17.8 µM [falling, single point]

CCN1CCN(S(=O)(=O)c2ccc3ccccc3c2)CC1
AC50 [1]: 6.51 µM [rising, single point]

Cc1c(C(=O)Nc2ccc(F)cc2)oc2ccc(S(=O)(=O)N3CCCCCC3)cc12
AC50 [1]: 3.55 µM [falling, full curve]
AC50 [2]: 1.12 µM [rising, full curve, poor fit]

Cn1cc(Br)c(C(=O)NNC(=O)c2ccc(Br)cc2)n1
AC50 [1]: 16.4 µM [falling, partial curve]

CN(C(=O)c1ccncc1)c1nnc(-c2ccccn2)s1
AC50 [1]: 0.411 µM [rising, full curve, poor fit]

CCOC(=O)N/N=C/c1c[nH]c2ccccc12
AC50 [1]: 35.5 µM [falling, single point]

CC(NC(=O)c1cccc(S(=O)(=O)N2CCN(C)CC2)c1)c1ccc(Cl)cc1Cl (stereo not drawn)
AC50 [1]: 32.6 µM [falling, partial curve, poor fit]

O=C1CC(N2CCN(c3ccccc3Cl)CC2)C(=O)N1c1cccc(F)c1 (stereo not drawn)
AC50 [1]: 29.1 µM [rising, single point]

CCOC(=O)NC(=O)c1cn(-c2ccc(OC)cc2)c(=O)[nH]c1=O
AC50 [1]: 22.4 µM [rising, single point]

COc1ccccc1/C=C/C=N/NC(=O)c1ccccn1
AC50 [1]: 1.41 µM [falling, full curve]

CC12CCC(=O)N1C(C(=O)N1CCN(S(=O)(=O)c3cccc(C(F)(F)F)c3)CC1)CS2 (stereo not drawn)
AC50 [1]: 2.31 µM [rising, partial curve]

CCCc1cc(=O)oc2cc(OCC(=O)NCCCn3ccnc3)ccc12
AC50 [1]: 12.6 µM [rising, partial curve, poor fit]

COc1ccc2c(C(=O)NCCCCO)c(-c3ccc(S(C)(=O)=O)cc3)sc2c1
AC50 [1]: 6.51 µM [rising, partial curve, poor fit]

COc1ccc(-c2noc(CCCC(=O)NCc3ccco3)n2)cc1OC
AC50 [1]: 7.94 µM [falling, partial curve]

COc1ccc(NC(=O)CN(C)C(=O)c2ccc(OCc3ccccc3)c(OC)c2)cc1
AC50 [1]: 29.1 µM [falling, single point]

Cc1ccc(C2CCN(C(=S)NC(C)(C)C)C2)cc1 (stereo not drawn)
AC50 [1]: 5.62 µM [rising, full curve]
AC50 [2]: 11.2 µM [rising, partial curve, poor fit]

Nc1nnnn1/N=C/c1ccccc1OCc1ccc(Cl)cc1
AC50 [1]: 4.11 µM [rising, partial curve, poor fit]

S=c1[nH]nc(-c2cc(-c3ccccc3)n[nH]2)n1/N=C/c1ccc(Br)s1
AC50 [1]: 35.5 µM [falling, single point]

COc1ccccc1OCC(=O)N/N=C1\CCCCc2ccccc21
AC50 [1]: 35.5 µM [falling, single point]

Cc1cc(C)nc(NS(=O)(=O)c2ccc(N/C=C3\CCCC3=O)cc2)n1
AC50 [1]: 11.6 µM [rising, partial curve, poor fit]

Cc1ccc(-n2nnnc2Sc2nc([N+](=O)[O-])nn2C)cc1C
AC50 [1]: 8.91 µM [falling, partial curve, poor fit]

Cn1nc([N+](=O)[O-])nc1Sc1cccc2cccnc12
AC50 [1]: 35.5 µM [falling, single point]

CCCCC(=O)Nc1ccc(C)c(S(=O)(=O)N2CCCCCC2)c1
AC50 [1]: 29.1 µM [rising, single point]

O=C(c1cc2cc(Br)ccc2o1)N1CCN(c2ccccc2)CC1
AC50 [1]: 0.891 µM [falling, full curve]

COC(=O)c1cnc(Oc2ccc(NC(=O)NC(=O)c3c(OC)cccc3OC)cc2)cc1C(F)(F)F
AC50 [1]: 3.98 µM [rising, full curve, poor fit]
AC50 [2]: 3.98 µM [falling, full curve]

CCC1CCCCN1C(=O)COC(=O)c1cccs1 (stereo not drawn)
AC50 [1]: 5.8 µM [falling, single point]

CN(CC(O)Cn1cnc2c1c(=O)n(C)c(=O)n2C)c1ccccc1 (stereo not drawn)
AC50 [1]: 12.6 µM [rising, partial curve, poor fit]

C=CCNC(=O)/C(C#N)=C/c1cn(-c2ccccc2)nc1-c1ccc(OC)c([N+](=O)[O-])c1
AC50 [1]: 14.6 µM [rising, single point]
AC50 [2]: 2.59 µM [falling, full curve]

CN(CCC(=O)Nc1ccc(Br)cc1)Cc1ccccc1
AC50 [1]: 13 µM [falling, partial curve, poor fit]

COc1cccc(C(=O)NNC(=O)C(=O)Nc2ccc(C)c(Cl)c2)c1
AC50 [1]: 8.91 µM [falling, partial curve, poor fit]

COc1ccc(S(=O)(=O)N2CCC(C(=O)NC3CCCCC3)CC2)cc1OC
AC50 [1]: 32.6 µM [rising, partial curve, poor fit]

O=c1cc(CSc2nnc(Nc3ccccc3F)s2)nc2sccn12
AC50 [1]: 11.2 µM [falling, partial curve, poor fit]

Cc1ccc(S(=O)(=O)Nc2cc(-c3nn(C)c(=O)c4ccccc34)ccc2N2CCOCC2)cc1
AC50 [1]: 18.4 µM [rising, single point]
AC50 [2]: 20.6 µM [falling, single point]

Cc1ccc(S(=O)(=O)N(C)C)cc1NC(=O)c1ccccc1Br
AC50 [1]: 0.1 µM [rising, full curve, poor fit]

CCOc1ccccc1C(C(=O)NCCOC)N(CCOC)C(=O)Cn1nnc2ccccc21 (stereo not drawn)
AC50 [1]: 0.0891 µM [rising, full curve, poor fit]

O=C(Nc1cccc([N+](=O)[O-])c1)c1ccc2nsnc2c1
AC50 [1]: 15.8 µM [falling, single point]

O=C(Cc1nc(=O)c2ccccc2s1)Nc1ccccc1
AC50 [1]: 5.01 µM [falling, full curve]

CCOc1ccccc1N(CC(=O)N/N=C/c1cc(Br)ccc1OC)S(C)(=O)=O
AC50 [1]: 29.1 µM [falling, single point]

Cc1[nH]c2c(C)cccc2c1CN1CCC(CO)(Cc2ccccc2)CC1
AC50 [1]: 6.31 µM [falling, partial curve]

CSc1ccccc1NC(=O)CSCc1ccccc1Br
AC50 [1]: 5.62 µM [falling, single point]

COCc1nc2oc3ccc(F)cc3c(=O)c2cc1C(=O)OC
AC50 [1]: 15.8 µM [rising, partial curve, poor fit]

C=CCn1cc(C(=O)NCc2ccc3c(c2)OCO3)c(=O)c2cc(S(=O)(=O)N(CC)CC)ccc21
AC50 [1]: 3.26 µM [rising, partial curve]

CCOc1ccc(NC(=O)C2=C(C)C(=O)OC23CCC(C)CC3)cc1 (stereo not drawn)
AC50 [1]: 6.51 µM [falling, single point]

COc1cc(NC(=O)C(C)Oc2ccccc2)ccc1NC(=O)COc1ccccc1 (stereo not drawn)
AC50 [1]: 10 µM [rising, partial curve]

COc1ccccc1NS(=O)(=O)c1ccc(OC)c([N+](=O)[O-])c1
AC50 [1]: 4.47 µM [rising, single point]
